# Source: the supplement of paper PMC10470496
# Counter-ions that a name gives are not always drawn. This is one part of the list. Many values rest on one well or one pass, so single values are uncertain.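 The strains were three CDC resistance-bank clinical C. auris isolates from clades III, IV and I, cultured in RPMI-1640 at 35°C. Growth was background-corrected OD600 versus vehicle-only wells on the same plate. A hit needed >50% inhibition in two or more strains plus a plate-corrected B-score exceeding 0.1.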
# Assays:
# Assay in all cases: growth relative to vehicle control (OD600 ratio) (fraction); higher = less inhibition
# Conditions in all cases: 24 h
# C. auris AR-384 = tested on: C. auris AR-384
# C. auris AR-386 = tested on: C. auris AR-386
# C. auris AR-387 = tested on: C. auris AR-387
Compound,growth (C. auris AR-384; 1 µM),growth (C. auris AR-384; 10 µM),growth (C. auris AR-386; 1 µM),growth (C. auris AR-386; 10 µM),growth (C. auris AR-387; 1 µM),growth (C. auris AR-387; 10 µM)
CCOC(=O)[C@H]1O[C@@H]1C(=O)N[C@@H](CC(C)C)C(=O)NCCC(C)C [Aloxistatin],1.01,1.06,1.1,0.86,1.14,0.96
CC(C)(C)c1cc(C(C)(C)C)c(NC(=O)c2c[nH]c3ccccc3c2=O)cc1O [Ivacaftor (VX-770)],1.04,1.13,1.33,1.08,1.29,1.28
CCCC(=O)O[C@]1(C(=O)COC(C)=O)CC[C@H]2[C@@H]3C[C@H](F)C4=CC(=O)C=C[C@]4(C)[C@@]3(F)[C@@H](O)C[C@@]21C [Difluprednate],1,0.66,0.78,0.62,0.78,0.7
C[C@H]1CNCCCN1S(=O)(=O)c1cccc2cncc(F)c12 [Ripasudil (K-115) hydrochloride dihydrate],1.01,1.12,0.77,0.84,0.79,0.86
CS(=O)(=O)c1ccc([C@@H](O)[C@@H](CO)NC(=O)C(Cl)Cl)cc1 [Thiamphenicol],1.11,1.31,1.17,0.78,1.23,1.14
CNC(=O)c1ccc(Nc2ncc(C(F)(F)F)c(NCc3nccnc3N(C)S(C)(=O)=O)n2)cc1,0.72,0.86,0.77,0.86,0.68,0.74
CCCc1nn(C)c2c(=O)[nH]c(-c3cc(S(=O)(=O)N4CCN(C)CC4)ccc3OCC)nc12 [Sildenafil],1.33,1.17,1.19,1.09,1.26,1.2
Cc1c(-c2ccc(O)cc2)n(Cc2ccc(OCCN3CCCCCC3)cc2)c2ccc(O)cc12 [Bazedoxifene Acetate],0.83,0.77,0.95,0.74,0.7,0.66
O=C(O)c1cc(/N=N/c2ccc(S(=O)(=O)Nc3ccccn3)cc2)ccc1O [Sulfasalazine],0.84,1.34,1.35,1.1,1.33,1.29
CCN(CC)Cc1cc(Nc2ccnc3cc(Cl)ccc23)ccc1O [Amodiaquine dihydrochloride dihydrate],1.08,0.83,0.79,0.85,0.78,1.01
Cc1c(NC(=O)c2cccnc2)c(=O)n(-c2ccccc2)n1C [Nifenazone],0.98,0.97,0.93,0.95,0.87,0.99
CC(=O)[C@H]1CC[C@H]2[C@@H]3C=CC4=CC(=O)CC[C@@]4(C)[C@@H]3CC[C@]12C [Dydrogesterone],0.85,0.95,0.91,0.93,1.12,1
CN1CCN(CCCN2c3ccccc3Sc3ccc(C(F)(F)F)cc32)CC1 [Trifluoperazine 2HCl],0.88,1.25,1.04,1.07,1,0.97
CC(=O)Nc1nnc(S(N)(=O)=O)s1 [Acetazolamide],0.96,0.97,0.69,0.88,0.8,0.85
CCOC(=O)c1ncn2c1CN(C)C(=O)c1cc(F)ccc1-2 [Flumazenil],1.03,1.29,0.96,0.74,0.67,0.84
COc1cc2ncnc(Nc3ccc(F)c(Cl)c3)c2cc1NC(=O)/C=C/CN1CCCCC1,0.72,0.92,0.77,0.99,1.06,0.88
C=CCNC1=C2C[C@@H](C)C[C@H](OC)[C@H](O)[C@@H](C)/C=C(\C)[C@H](OC(N)=O)[C@@H](OC)/C=C\C=C(/C)C(=O)NC(=CC1=O)C2=O [Tanespimycin (17-AAG)],1.02,0.94,0.93,0.99,0.86,1.18
CCOC(CN1CCN(CC(C)C(=O)c2ccccc2)CC1)c1ccccc1 (stereo not given) [Eprazinone 2HCl],0.79,1.16,0.91,1.3,0.91,1.06
C#C[C@]1(O)CC[C@H]2[C@@H]3CCC4=CC(=O)CC[C@@H]4[C@H]3CC[C@@]21CC [Levonorgestrel],1.42,1.16,1.11,0.94,0.88,0.73
Cn1cnc2c(F)c(Nc3ccc(Br)cc3Cl)c(C(=O)NOCCO)cc21 [Selumetinib (AZD6244)],1.15,0.55,0.68,1.06,1.15,0.67
C[C@@H]1[C@H](O)[C@@H](C)/C=C/C=C/C=C/C=C/C=C/C=C/C=C/[C@H](O[C@@H]2O[C@H](C)[C@@H](O)[C@H](N)[C@@H]2O)C[C@@H]2O[C@](O)(C[C@@H](O)C[C@@H](O)[C@H](O)CC[C@@H](O)C[C@@H](O)CC(=O)O[C@H]1C)C[C@H](O)[C@H]2C(=O)O [Amphotericin B],1.25,0.11,0.53,0.63,0.83,0.06
Cc1nnc(NS(=O)(=O)c2ccc(N)cc2)s1 [Sulfamethizole],0.74,0.94,0.58,0.94,0.88,1.06
Cc1c(-c2cnccn2)ssc1=S [Oltipraz],0.85,0.65,0.72,0.82,0.75,0.76

Compound,growth (C. auris AR-384; 1 µM),growth (C. auris AR-384; 10 µM),growth (C. auris AR-386; 1 µM),growth (C. auris AR-386; 10 µM),growth (C. auris AR-387; 1 µM),growth (C. auris AR-387; 10 µM)
Cc1ccccc1C(=O)Nc1ccc(C(=O)N2CCCC(O)c3cc(Cl)ccc32)c(C)c1 (stereo not given) [Tolvaptan],0.94,0.93,0.88,1.03,1.04,0.92
O=C(O)COCCN1CCN(C(c2ccccc2)c2ccc(Cl)cc2)CC1 (stereo not given) [Cetirizine DiHCl],0.8,1.31,1.15,0.83,0.8,1
CN(C)CCc1c[nH]c2ccc(Cn3cncn3)cc12 [Rizatriptan Benzoate],0.95,1.37,1.42,1.09,0.92,0.88
Nc1nc(Cl)nc2c1ncn2[C@@H]1O[C@H](CO)[C@@H](O)[C@@H]1F [Clofarabine],1.28,0.72,1.07,1.01,0.97,1.3
CN1CC[C@H](c2c(O)cc(O)c3c(=O)cc(-c4ccccc4Cl)oc23)[C@H](O)C1 [Flavopiridol (Alvocidib)],0.78,0.42,1,0.56,0.82,0.66
O=c1[nH]cnc2c1ncn2[C@H]1CC[C@@H](CO)O1 [Didanosine],1.15,1.36,1.24,0.74,0.77,0.9
Oc1c(Cl)cc(Cl)cc1Sc1cc(Cl)cc(Cl)c1O [Bithionol],0.65,0.49,0.8,0.48,0.68,0.45
O=C(NC[C@H]1CN(c2ccc(N3CCOCC3=O)cc2)C(=O)O1)c1ccc(Cl)s1 [Rivaroxaban],0.97,0.9,0.85,0.88,0.83,1.01
CCCCc1ncc(/C=C(\Cc2cccs2)C(=O)O)n1Cc1ccc(C(=O)O)cc1 [Eprosartan Mesylate],0.8,0.98,0.79,1.04,0.9,0.88
CCOc1nc2cccc(C(=O)O)c2n1Cc1ccc(-c2ccccc2-c2nnn[nH]2)cc1 [Candesartan],1.15,1.02,0.72,1.27,1.04,0.89
Nc1nc2c(ncn2COCCO)c(=O)[nH]1 [Aciclovir],0.72,0.59,0.66,0.82,0.71,0.73
OCCN(CCO)c1nc(N2CCCCC2)c2nc(N(CCO)CCO)nc(N3CCCCC3)c2n1 [Dipyridamole],1.07,0.89,0.95,0.88,0.73,0.68
O=C(O)CCCN1CCC(O[C@@H](c2ccc(Cl)cc2)c2ccccn2)CC1 [Bepotastine Besilate],0.79,0.87,0.96,1.11,0.89,0.94
CCCCNc1ccc(C(=O)OCCN(C)C)cc1 [Tetracaine HCl],0.88,0.79,1.04,0.63,0.75,0.89
Clc1ccc(C(c2ccccc2Cl)C(Cl)Cl)cc1 (stereo not given) [Mitotane],0.91,1.09,1.24,1.24,1,1.05
CCC[C@H](N[C@@H](C)C(=O)N1[C@H](C(=O)O)C[C@@H]2CCCC[C@@H]21)C(=O)OCC [Perindopril Erbumine],1.19,1.18,1.02,1.23,1.01,0.96
CCCCOc1cc(C(=O)NCCN(CC)CC)c2ccccc2n1 [Dibucaine HCl],0.85,0.71,0.7,0.88,0.72,0.74
O=C(NC1CCN(CCCCC2(C(=O)NCC(F)(F)F)c3ccccc3-c3ccccc32)CC1)c1ccccc1-c1ccc(C(F)(F)F)cc1 [Lomitapide Mesylate],1.2,1.54,1.02,1.03,0.91,1.52
O=C(O)CSCC(=O)NC1CCSC1=O (stereo not given) [Erdosteine],0.73,0.99,0.8,1.03,0.9,0.76
CCCCc1oc2ccccc2c1C(=O)c1cc(I)c(OCCN(CC)CC)c(I)c1 [Amiodarone HCl],0.78,0.95,0.63,0.86,0.67,0.82
CC(C)OC(=O)CCC/C=C\C[C@@H]1[C@@H](/C=C/[C@@H](O)COc2cccc(C(F)(F)F)c2)[C@H](O)C[C@@H]1O [Travoprost],0.84,1.11,0.88,0.98,0.79,1.38
CCCCOc1ccc(C(=O)CCN2CCCCC2)cc1 [Dyclonine HCl],0.86,0.75,1.04,0.54,0.6,0.64

# Part of the list above, set out differently:
Compound | growth (C. auris AR-384; 1 µM) | growth (C. auris AR-384; 10 µM) | growth (C. auris AR-386; 1 µM) | growth (C. auris AR-386; 10 µM) | growth (C. auris AR-387; 1 µM) | growth (C. auris AR-387; 10 µM)
O=C(O)COCCN1CCN(C(c2ccccc2)c2ccc(Cl)cc2)CC1 (stereo not given) [Cetirizine DiHCl] | 0.8 | 1.31 | 1.15 | 0.83 | 0.8 | 1
CCCCOc1ccc(C(=O)CCN2CCCCC2)cc1 [Dyclonine HCl] | 0.86 | 0.75 | 1.04 | 0.54 | 0.6 | 0.64
